This assay has as its target human CCR6 (Homo sapiens, UniProt P51684). In words: Migration assay (chemotaxis, ChemoTX). The note with it: read-out: Potency (IC50 value in the migration assay); hCCR6-transfected Ba/F3 cells in human serum, migration to recombinant human CCL20 10 nM, 37° C. 45 minutes. The text has this:
A chemotaxis assay can be used to determine the efficacy of potential receptor antagonists at blocking the migration mediated through chemokine receptors, such as CCR6. This assay is routinely performed using the ChemoTX® microchamber system with a 5-μm pore-sized polycarbonate membrane. Chemokine receptor-expressing cells are required for such an assay. In this case, Ba/F3 cells (Palacios et al., Nature, 309:126, 1984) transfected with the gene for human CCR6 under control of the CMV promotor were used. To begin such an assay, hCCR6-transfected Ba/F3 cells are first grown for 24 hr in medium supplemented with sodium butyrate, which increases CCR6 transcription via the CMV promotor. The prepared Ba/F3 cells, are collected by centrifugation at 400×g at room temperature, then suspended at 4 million/ml in human serum. The compound being tested is serially diluted from a maximum final concentration of 1 μM (or an equivalent volume of its solvent (DMSO)) and is then added to the cell/serum mixture. Separately, recombinant human CCL20 (MIP-3α/LARC) at its EC50 concentration (10 nM) is placed in the lower wells of the ChemoTX® plate. […] The amount of fluorescence, corresponding to the number of migrated cells, is measured using a Spectrafluor Plus plate reader (TECAN, San Jose, CA).

Chains of the proteins cited; added tags and fusions are not shown.
UniProt P51684, whole entry: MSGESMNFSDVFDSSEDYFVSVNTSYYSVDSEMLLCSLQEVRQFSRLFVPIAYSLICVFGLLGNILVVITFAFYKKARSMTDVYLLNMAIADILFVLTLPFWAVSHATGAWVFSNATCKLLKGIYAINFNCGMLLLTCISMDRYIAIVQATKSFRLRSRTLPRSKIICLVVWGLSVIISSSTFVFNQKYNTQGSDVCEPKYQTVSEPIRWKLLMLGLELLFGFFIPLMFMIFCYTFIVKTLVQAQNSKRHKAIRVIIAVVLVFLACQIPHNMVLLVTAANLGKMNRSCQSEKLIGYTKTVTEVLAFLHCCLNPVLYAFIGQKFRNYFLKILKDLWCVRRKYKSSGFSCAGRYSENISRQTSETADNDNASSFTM

The structures given here were assigned with low confidence; some may be wrong.

Consider `O=S(=O)(c1ccc(-c2cnc3[nH]ccc3c2)cc1)N1CC[C@@H](Nc2ccc(C(F)(F)F)cn2)[C@@H](O)C1`, for which the IC50 is less than 1 nM. On to `O=c1[nH]ncc2ncc(-c3ccc(S(=O)(=O)N4CC[C@@H](Nc5ccc(C(F)(F)F)cn5)[C@@H](O)C4)cc3)cc12`, for which the IC50 was less than 1 nM.

Source of the values: patent publication US12018016B2, “Aryl sulfonyl (hydroxy) piperidines as CCR6 inhibitors” (CHEMOCENTRYX, INC., priority 2021, dated 2024).
